Source: publication PMC3119047
These are yes or no findings as the source states them, for the method shown. For some of these results: Binding seen in cells or lysates may run through a third protein. Some binding calls cover weakened binding; strength is not graded here. Where a sequence is shown, tags or fusion partners need not be part of it.

B1: AtRING1A (yeast two-hybrid fusion) (protein, UniProt Q9FKW0 1-522)
chain: MSVKNNSFSSAEIPDVADQPRDRFNPEATQDLQEKDETKEEKEGDEEVKHDEAEEDQEVVKPNDAEEDDDGDDAEEDEEEEVEAEEDEEAEEEEEEEEEEEEEEEDSKERSPSSISGDQSEFMEIDLGEIRKDVQCPICLGIIKKTRTVMECLHRFCRECIDKSMRLGNNECPACRKHCASRRSLRDDPKFDALIAALFTNIDSYEEEELAFHEDEMARNKQIQASIAQISQRQSEALVKRRSLGKEAAVLMRSPRIASGSRRRRNSRNMEQQNASEAHEDDDNDDNNNRGRDKDSSSDERGTEVRQKKRRKRSTSRSTQHPSSSGANKNNGNCADNDTEVYRDTKGISPGLVWNPEILAWGRGGTRSNTRHGNNTSGGSSKSVRNARVNKLVEYLRSSVDGSSVELDIHVKLVSLDTKCIPDLPQPYLCCRPTLLVKQLREFVALQIHLKTEEVELLVTRRRVGEDAAIENLPAVTPASAAASKDEMLSLEDNETLSRLKIDFISSHEQHLIIAYRKKQTE
B2: AtRING1B (yeast two-hybrid fusion) (protein, UniProt Q0WX00 1-460)
chain: MPSLKSFSAAEEEDDQLGRNSEAERFNPEAVEKEEDPDKMDEKDESGDEEDDVKRDQVEAEDEEALGEEEDSKERSQSSSAGELSESEYMVVDLADICKDVQCSICLGIIRKTRTVMECLHRFCRECIDKSMRLGNNECPTCRKHCASRRSLRDDPNFDALIAALFKNIDKFEEEELNFRQDDEARNKQIQASIAQVSQRQSKALVKRKSVGKGTAILSRSRRSGGGSRRRRNCRNIEQDTSEANDDDDQNKRGKDSSSDEPCERQRKKRSATQPSSSNANNNDNCAGNGTEQTHQRDSRVISPVLVWNSELIAWGRGGTRSNTRQGNNNQGAISKRNARLKRLVEYLGSLEGNSVELDIHLKLVSLDTEGLLNLHEPYLCFRPTLLVKQLREYVARHLKLKAEEVELLVSKDGDTVIGNKTSTEKMQSLQDDETVAKLKVDCISSNGYMIVVYRRKQIA
B3: Myc-RING1A (protein, UniProt Q9FKW0 1-522)
chain: B1 chain
B4: Myc-RING1B (protein, UniProt Q0WX00 1-460)
chain: B2 chain

What was measured:
[1] = target: T1, AtBMI1C (yeast two-hybrid fusion) (Arabidopsis thaliana) (UniProt Q9LS86); assay: two-hybrid; pGADT7 and pGBKT7 fusions co-transformed into yeast strain AH109; growth on plates lacking Leu, Trp, His and adenine; quantitative β-galactosidase activity
T1 sequence: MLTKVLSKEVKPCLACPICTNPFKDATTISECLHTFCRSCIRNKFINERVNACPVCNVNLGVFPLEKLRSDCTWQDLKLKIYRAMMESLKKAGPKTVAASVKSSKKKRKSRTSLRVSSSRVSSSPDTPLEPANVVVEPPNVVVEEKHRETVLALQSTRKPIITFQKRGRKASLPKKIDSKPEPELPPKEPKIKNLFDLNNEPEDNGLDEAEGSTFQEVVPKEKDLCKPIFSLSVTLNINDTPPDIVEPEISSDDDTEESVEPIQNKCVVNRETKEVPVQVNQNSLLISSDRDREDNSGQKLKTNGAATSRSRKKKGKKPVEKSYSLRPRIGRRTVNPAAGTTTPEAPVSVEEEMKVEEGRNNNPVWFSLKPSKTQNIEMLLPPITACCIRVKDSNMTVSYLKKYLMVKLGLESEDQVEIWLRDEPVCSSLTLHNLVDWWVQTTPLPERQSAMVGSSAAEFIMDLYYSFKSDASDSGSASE

[2] = target: T2, MBP-AtBMI1C (Arabidopsis thaliana) (UniProt Q9LS86); assay: pull-down; MBP-AtBMI1C-coated beads (amylase resin) incubated with plant total protein extract for 2 h at 4°C; 50 mM Tris-HCl pH 7.6, 150 mM NaCl, 2 mM EDTA; washed three times; Western blot with anti-Myc and anti-MBP; only the target purified
T2 sequence: T1 sequence

Binder | binding [1] | binding [2]
B1 | binds | 
B2 | binds | 
B3 |  | binds
B4 |  | binds
